# Test results taken from patent publication US20100144601A1 (Janssen / Centocor, published 2010).
# Amino acid sequences for entries named in this document (tags omitted). Residues count along the entry.
# UniProt P01375, residues 77-233: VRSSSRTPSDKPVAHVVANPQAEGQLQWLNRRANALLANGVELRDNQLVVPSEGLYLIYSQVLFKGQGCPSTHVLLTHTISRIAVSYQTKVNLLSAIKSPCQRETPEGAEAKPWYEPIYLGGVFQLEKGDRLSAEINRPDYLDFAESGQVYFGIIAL
# These are yes or no findings as the source states them, for the method shown. Some entries that bind do so weakly or less than the wild type.
# Biological target: T1, recombinant TNFα, biotinylated (human, UniProt P01375 77-233, biotinylated using sulfo-NHS-LC-Biotin (sites not given))
# T1 construct: human is stated in the abstract and claims; also called biotinylated TNFα; human TNFα
# Assay: ELISA of lysates on biotinylated TNFα on streptavidin plate
# Description: Maxisorp plates (Nunc) were coated with 0.5 μg of streptavidin, washed with TBST, and bound to 100 ng of biotinylated TNFα or 200 ng of biotinylated human serum albumin before being blocked with Starting Block (Thermo Scientific). Clarified lysates diluted 1:1 in Starting Block were added to the plates and allowed to bind for 1 hour before being washed with TBST. Detection of bound Tencon was accomplished using an anti-HIS-HRP antibody (Qiagen).
row,Binder,binding
1,Clone No. 59 (designed binder) LPAPKNLVVSEVTEDSLRLSWYYRIIEFDSFLIQYQESEKVGEAINLTVPGSERSYDLTGLKPGTEYTVSIYGVSMNLLSPPLSAEFTT,binds
2,Clone No. 62 (designed binder) LPAPKNLVVSEVTEDSLRLSWKVCTAYFDSFLIQYQESEKVGEAINLTVPGSERSYDLTGLKPGTEYTVSIYGVGMNSFSPPLSAEFTT,binds
3,Clone No. 67 (designed binder) LPAPKNLVVSEVTEDSLRLSWRMRTTEFDSFLIQYQESEKVGEAINLTVPGSERSYDLTGLKPGTEYTVSIYGVQSADVFTPLSAEFTT,binds
4,Clone No. 61 (designed binder) LPAPKNLVVSEVTEDSLRLSWYSILEAFDSFLIQYQESEKVGEAINLTVPGSERSYDLTGLKPGTEYTVSIYGVYCAPPMKPLSAEFTT,binds
5,Clone No. 89 (designed binder) LPAPKNLVVSEVTEDSLRLSWLRWYSVFDSFLIQYQESEKVGEAINLTVPGSERSYDLTGLKPGTEYTVSIYGVSKFGVEGPLSAEFTT,binds
6,Clone No. 91 (designed binder) LPAPKNLVVSEVTEDSLRLSWGTSTRRFDSFLIQYQESEKVGEAINLIVPGSERSYDLTGLKPGTEYTVSIYGVTRFGVEQPLSAEFTT,binds
7,Clone No. 90 (designed binder) LPAPKNLVVSEVTEDSLRLSWLRWYSVFDFFLIQYQESEKVGEAINLTVPGSERSYDLTGLKPGTEYTVSIYGVTRFGVEQPLSAEFTT,binds
8,Clone No. 58 (designed binder) LPAPKNLVVSEVTEDSLRLSWFIFAIMFDSFLIQYQESEKVGEAINLTVPGSERSYDLTGLKPGTEYTVSIYGVLRLELRKPLSAEFTT,binds
9,Clone No. 63 (designed binder) LPAPKNLVVSEVTEDSLRLSWTEGKEGFDSFLIQYQESEKVGEAINLTVPGSERSYDLTGLKPGTEYTVSIYGVSPWLARRPLSAEFTT,binds
10,Clone No. 64 (designed binder) LPAPKNLVVSEVTEDSLRLSWMDIDHSFDSFLIQYQESEKVGEAINLTVPGSERSYDLTGLKPGTEYTVSIYGVSLGYTTKPLSAEFTT,binds
11,Clone No. 65 (designed binder) LPAPKNLVVSEVTEDSLRLSWGSMNEHFDSFLIQYQESEKVGEAINLTVPGSERSYDLTGLKPGTEYTVSIYGVENDKSPMPLSAEFTT,binds
12,Clone No. 92 (designed binder) LPAPKNLVVSEVTEDSLRLSWNFANVMFDFFLIQYQESEKVGEAINLTVPGSERSYDLTGLKPGTEYTLSIYGVTRFGVEQPLSAEFTT,binds
13,Clone No. 60 (designed binder) LPAPKNLVVSEVTEDSLRLSWPNSAMFFDSFLIQYQESEKVGEAINLTVPGSERSYDLTGLKPGTEYTVSIYGVHSYGETLPLSAEFTT,binds
14,Clone No. 66 (designed binder) LPAPKNLVVSEVTEDSLRLSWSFSHTVFDSFLIQYQESEKVGEAINLTVPGSERSYDLTGLKPGTEYTVSIYGVDESIPISPLSAEFTT,binds

# More lines, now with the values ahead:
row,binding,Binder
1,binds,Clone No. 93 (designed binder) LPAPKNLVVSEVTEDSLRLSWNFANVMFDFFLIQYQESEKVGEAINLTVPGSERSYDLTGLKPGTEYTVSIYGVTRFGVEQPLSAEFTT
2,binds,Clone No. 96 (designed binder) LPAPKNLVVSEVTEDSLRLSWLVLGAMFDSFLIQYQESEKVGEAINLTVPGSERSYDLTGLKPGTEYTVSIYGVKTPHSRKPLSAEFTT
3,binds,Clone No. 99 (designed binder) LPAPKNLVVSEVTEDSLRLSWNFANVMFDFFLIQYQESEKVGEAINLTVPGSERSYDLTGLKPGTEYTVSIYGVMGTHLTLPLSAEFTT
4,binds,Clone No. 97 (designed binder) LPAPKNLVVSEVTEDSLRLSWGRTFDWFDSFLIQYQESEKVGEAIDLTVPGSERSYDLTGLKPGTEYTVSIYGVKGRRHTKPLSAEFTT
5,binds,Clone No. 98 (designed binder) LPAPKNLVVSEVTEDSLRLSWFYLNFEFDSFLIQYQESEKVGEAINLTVPGSERSYDLTGLKPGTEYTVSIYGVYRSKYTLPLSAEFTT
6,binds,Clone No. 94 (designed binder) LPAPKNLVVSEVTEDSLRLSWWKVGSVFDSFLIQYQESEKVGEAINLTVPGSERSYDLTGLKPGTEYTVSIYGVLHHLTLHPLSAEFTT
7,binds,Clone No. 95 (designed binder) LPAPKNLVVSEVTEDSLRLSWKASGRKFDSFLIQYQESEKVGEAINLTVPGSERSYDLTGLKPGTEYTVSIYGVPSIASIIPLSAEFTT
